The list shows a part of the results.
compound: c1cn2cc(-c3ccc4cn[nH]c4c3)nc(Nc3ccc(N4CCOCC4)cc3)c2n1 [entospletinib]; assay: log2 fold change, soluble protein after heating vs DMSO (PISA); higher = thermal stabilisation; K562 lysate, 10 uM; active = over 0.2 and 3.5 SD of the protein, either way, in both replicates (recomputed)
Outline: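 Following dounce homogenisation of K562 pellets in PBS pH 7.4 with 1 mM MgCl2, crude extract at 1 mg/mL protein was incubated for 30 min with 10 μM compound. Aliquots were then heated for 3 min over 48°C-58°C and pooled, NP-40 was added to 0.5% at 4°C, and soluble protein was recovered as the supernatant at 21,000xg for 90 min. Channel-sum-equalised TMTpro 16plex LC-MS/MS quantified this protein. Each value, from duplicates, is a log-two fold change in thermal stability relative to solvent controls.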

Protein sequences, listed by entry. Tags and fused reporters are not part of them. Lines headed by an entry give the natural chain unless they say otherwise; changes in a name come on top.
UniProt Q08426: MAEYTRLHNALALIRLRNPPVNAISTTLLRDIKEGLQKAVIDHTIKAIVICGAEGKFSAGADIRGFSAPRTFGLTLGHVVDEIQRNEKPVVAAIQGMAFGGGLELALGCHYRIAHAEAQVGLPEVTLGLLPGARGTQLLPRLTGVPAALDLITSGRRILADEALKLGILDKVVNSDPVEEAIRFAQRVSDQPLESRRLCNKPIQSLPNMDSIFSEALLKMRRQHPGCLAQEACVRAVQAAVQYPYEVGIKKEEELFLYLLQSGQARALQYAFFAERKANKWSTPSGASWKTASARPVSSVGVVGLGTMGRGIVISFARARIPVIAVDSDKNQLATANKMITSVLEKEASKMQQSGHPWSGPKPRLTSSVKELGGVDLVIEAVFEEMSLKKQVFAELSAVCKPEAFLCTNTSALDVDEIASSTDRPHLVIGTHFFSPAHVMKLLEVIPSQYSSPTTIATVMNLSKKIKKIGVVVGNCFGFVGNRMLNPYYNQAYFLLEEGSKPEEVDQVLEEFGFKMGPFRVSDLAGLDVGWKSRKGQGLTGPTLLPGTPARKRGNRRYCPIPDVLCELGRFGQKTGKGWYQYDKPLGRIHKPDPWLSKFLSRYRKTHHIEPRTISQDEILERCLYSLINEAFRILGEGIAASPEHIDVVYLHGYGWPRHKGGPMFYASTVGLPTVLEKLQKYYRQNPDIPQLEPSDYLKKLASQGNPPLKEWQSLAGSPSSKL
UniProt Q96KS0, whole entry, looked up: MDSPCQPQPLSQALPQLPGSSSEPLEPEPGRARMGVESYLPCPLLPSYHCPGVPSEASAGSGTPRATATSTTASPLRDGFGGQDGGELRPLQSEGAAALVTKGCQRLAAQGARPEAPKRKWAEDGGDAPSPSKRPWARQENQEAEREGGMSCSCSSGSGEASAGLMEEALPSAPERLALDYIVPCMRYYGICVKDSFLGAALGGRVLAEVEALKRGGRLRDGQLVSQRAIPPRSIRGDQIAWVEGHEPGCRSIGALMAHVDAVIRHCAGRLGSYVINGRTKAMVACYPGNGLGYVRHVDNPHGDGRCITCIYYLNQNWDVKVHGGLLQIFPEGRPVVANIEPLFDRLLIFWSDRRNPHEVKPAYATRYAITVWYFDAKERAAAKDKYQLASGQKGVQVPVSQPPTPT
UniProt Q9GZT9: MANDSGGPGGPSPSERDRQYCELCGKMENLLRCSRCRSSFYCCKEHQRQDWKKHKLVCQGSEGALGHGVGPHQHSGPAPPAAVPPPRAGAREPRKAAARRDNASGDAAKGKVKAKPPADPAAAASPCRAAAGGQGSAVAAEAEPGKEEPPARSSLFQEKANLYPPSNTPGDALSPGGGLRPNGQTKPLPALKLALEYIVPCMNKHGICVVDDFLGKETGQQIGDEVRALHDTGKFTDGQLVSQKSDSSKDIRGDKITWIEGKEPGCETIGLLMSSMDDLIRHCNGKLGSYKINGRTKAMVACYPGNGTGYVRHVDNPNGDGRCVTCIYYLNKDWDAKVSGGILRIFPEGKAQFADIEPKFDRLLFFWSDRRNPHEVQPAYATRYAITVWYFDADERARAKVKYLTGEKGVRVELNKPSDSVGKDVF
UniProt Q9Y6B2: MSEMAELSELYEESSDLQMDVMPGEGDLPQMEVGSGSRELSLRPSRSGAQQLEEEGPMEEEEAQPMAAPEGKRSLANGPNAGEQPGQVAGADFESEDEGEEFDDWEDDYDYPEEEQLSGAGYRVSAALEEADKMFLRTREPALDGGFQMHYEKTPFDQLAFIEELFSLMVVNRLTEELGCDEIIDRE
UniProt Q96FX2: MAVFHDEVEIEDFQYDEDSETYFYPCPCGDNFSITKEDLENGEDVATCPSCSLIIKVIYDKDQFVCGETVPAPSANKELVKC
UniProt P63167, whole entry, looked up: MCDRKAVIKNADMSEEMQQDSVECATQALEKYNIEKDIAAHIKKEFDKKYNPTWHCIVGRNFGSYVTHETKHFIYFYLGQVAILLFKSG
UniProt O14640: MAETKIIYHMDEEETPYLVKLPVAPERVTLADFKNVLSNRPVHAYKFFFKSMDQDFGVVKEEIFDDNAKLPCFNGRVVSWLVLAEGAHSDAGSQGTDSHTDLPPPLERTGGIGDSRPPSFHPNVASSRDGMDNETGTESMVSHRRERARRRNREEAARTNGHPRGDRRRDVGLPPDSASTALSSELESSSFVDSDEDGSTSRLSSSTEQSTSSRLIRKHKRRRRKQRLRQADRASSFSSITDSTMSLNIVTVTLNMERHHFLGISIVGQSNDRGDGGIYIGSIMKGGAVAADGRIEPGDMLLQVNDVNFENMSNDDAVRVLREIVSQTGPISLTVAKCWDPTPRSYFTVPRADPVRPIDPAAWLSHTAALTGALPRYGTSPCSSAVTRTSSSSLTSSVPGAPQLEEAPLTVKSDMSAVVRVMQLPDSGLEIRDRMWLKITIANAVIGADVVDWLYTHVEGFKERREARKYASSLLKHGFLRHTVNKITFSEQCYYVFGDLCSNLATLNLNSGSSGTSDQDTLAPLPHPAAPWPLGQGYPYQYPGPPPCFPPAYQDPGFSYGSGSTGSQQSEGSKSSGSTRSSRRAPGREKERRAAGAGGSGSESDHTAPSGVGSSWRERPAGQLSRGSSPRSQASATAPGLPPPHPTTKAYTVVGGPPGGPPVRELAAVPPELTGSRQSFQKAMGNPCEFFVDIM
UniProt Q8WVE0: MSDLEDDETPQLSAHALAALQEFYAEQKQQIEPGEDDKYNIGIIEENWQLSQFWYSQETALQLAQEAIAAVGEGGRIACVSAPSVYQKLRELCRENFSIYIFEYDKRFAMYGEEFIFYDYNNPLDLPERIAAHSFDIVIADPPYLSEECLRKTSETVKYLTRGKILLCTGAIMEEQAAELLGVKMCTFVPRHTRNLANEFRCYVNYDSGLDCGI
UniProt O14576, whole entry, looked up: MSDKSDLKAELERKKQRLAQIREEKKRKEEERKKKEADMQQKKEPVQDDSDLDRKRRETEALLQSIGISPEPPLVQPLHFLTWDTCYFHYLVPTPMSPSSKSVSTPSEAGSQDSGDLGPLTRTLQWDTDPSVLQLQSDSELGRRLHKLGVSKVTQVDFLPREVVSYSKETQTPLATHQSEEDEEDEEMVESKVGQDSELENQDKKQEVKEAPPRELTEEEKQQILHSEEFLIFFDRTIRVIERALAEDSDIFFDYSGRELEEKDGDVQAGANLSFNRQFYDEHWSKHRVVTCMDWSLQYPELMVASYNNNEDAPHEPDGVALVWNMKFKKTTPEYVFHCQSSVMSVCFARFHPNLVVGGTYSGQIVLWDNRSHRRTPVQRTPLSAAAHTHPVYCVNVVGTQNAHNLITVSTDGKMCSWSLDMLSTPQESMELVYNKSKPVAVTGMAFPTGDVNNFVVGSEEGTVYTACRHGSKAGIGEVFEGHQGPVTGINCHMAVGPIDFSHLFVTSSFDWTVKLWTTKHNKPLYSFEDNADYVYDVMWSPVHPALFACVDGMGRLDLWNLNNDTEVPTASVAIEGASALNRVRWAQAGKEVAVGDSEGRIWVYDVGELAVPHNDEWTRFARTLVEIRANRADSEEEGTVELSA
UniProt Q7Z2Z2: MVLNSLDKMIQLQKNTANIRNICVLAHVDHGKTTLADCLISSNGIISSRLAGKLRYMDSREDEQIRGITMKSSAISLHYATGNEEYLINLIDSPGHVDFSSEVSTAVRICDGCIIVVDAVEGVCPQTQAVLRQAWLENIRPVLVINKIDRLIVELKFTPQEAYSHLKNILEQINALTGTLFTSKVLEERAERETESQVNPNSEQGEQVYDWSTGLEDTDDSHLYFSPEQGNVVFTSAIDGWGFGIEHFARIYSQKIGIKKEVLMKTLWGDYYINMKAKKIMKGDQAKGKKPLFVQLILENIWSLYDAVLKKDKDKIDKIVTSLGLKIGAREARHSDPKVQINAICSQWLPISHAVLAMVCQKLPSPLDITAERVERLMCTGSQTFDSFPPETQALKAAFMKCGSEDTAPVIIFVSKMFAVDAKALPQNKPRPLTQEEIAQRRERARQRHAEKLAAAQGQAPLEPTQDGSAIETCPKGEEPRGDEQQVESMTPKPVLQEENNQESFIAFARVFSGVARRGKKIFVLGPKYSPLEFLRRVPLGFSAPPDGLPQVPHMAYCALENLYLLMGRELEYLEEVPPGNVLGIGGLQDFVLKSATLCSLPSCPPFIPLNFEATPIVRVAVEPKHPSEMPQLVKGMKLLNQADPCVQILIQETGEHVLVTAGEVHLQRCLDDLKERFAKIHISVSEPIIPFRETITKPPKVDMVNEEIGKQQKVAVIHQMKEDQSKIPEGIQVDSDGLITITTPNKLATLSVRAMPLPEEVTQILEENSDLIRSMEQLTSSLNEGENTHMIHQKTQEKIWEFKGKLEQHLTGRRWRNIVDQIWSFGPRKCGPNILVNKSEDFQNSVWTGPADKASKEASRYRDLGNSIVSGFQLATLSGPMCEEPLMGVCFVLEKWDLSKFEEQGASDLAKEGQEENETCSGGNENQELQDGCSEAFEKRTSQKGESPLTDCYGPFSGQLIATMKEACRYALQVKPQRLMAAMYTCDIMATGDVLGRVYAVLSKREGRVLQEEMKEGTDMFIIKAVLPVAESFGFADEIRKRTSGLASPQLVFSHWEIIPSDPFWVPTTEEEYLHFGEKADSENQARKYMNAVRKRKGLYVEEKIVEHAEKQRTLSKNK
UniProt Q14195, whole entry, looked up: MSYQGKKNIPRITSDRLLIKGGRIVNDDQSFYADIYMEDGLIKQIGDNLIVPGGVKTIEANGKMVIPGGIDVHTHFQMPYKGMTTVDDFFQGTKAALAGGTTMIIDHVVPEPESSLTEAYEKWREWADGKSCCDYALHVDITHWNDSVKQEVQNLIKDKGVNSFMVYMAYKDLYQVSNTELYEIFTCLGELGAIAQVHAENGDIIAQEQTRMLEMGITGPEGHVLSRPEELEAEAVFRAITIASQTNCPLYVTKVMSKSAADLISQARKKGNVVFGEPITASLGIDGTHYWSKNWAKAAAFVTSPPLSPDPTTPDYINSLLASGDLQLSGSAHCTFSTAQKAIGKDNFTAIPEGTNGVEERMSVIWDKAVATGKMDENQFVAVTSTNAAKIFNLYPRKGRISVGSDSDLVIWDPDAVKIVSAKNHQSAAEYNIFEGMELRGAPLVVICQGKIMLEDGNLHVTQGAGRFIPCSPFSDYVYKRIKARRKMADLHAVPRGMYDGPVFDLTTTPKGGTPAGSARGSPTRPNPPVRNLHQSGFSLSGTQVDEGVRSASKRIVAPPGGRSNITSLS
UniProt Q14156: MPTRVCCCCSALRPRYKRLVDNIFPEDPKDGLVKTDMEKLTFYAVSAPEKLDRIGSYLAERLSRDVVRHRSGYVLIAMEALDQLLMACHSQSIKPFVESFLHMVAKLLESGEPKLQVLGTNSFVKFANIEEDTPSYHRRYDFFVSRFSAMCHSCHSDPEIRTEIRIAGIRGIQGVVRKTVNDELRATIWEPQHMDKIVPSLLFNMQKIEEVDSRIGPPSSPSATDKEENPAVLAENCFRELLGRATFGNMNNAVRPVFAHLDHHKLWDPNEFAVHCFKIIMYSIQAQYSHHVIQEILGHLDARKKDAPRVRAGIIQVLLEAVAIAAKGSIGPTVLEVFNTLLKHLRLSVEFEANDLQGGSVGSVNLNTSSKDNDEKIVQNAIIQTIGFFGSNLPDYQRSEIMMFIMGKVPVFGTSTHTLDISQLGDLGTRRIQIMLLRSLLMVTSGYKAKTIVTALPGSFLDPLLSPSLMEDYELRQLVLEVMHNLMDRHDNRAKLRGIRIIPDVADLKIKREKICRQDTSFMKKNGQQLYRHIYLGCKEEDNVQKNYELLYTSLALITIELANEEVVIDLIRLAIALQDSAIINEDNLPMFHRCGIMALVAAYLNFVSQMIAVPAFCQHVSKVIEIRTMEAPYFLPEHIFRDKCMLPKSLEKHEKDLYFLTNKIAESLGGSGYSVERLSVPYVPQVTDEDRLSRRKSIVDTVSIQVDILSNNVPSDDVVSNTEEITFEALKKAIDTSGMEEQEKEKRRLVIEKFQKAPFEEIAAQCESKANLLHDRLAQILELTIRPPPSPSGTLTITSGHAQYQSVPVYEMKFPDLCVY
UniProt O95147: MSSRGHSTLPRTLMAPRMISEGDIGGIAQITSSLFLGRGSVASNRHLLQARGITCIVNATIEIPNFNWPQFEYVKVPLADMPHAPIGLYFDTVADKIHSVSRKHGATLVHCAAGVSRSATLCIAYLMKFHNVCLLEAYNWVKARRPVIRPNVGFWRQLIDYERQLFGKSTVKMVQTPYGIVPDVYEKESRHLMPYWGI
UniProt Q5VUJ9: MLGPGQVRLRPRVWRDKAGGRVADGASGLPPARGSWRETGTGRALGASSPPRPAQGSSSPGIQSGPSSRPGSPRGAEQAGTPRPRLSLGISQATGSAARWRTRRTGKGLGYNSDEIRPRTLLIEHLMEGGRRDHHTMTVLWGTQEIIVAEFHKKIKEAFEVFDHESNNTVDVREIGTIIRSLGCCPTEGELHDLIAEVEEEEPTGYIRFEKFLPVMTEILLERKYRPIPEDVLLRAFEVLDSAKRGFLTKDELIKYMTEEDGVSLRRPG

log2 fold change, inactive:
EHHADH (UniProt Q08426) -0.013
EBAG9 isoform 2 (UniProt O00559) 0
EGLN2 (UniProt Q96KS0) -0.018
EGLN1 (UniProt Q9GZT9) -0.009
EID1 (UniProt Q9Y6B2) -0.143
DPH3 (UniProt Q96FX2) 0.01
DTX3L (UniProt Q8TDB6) 0.088
DPP3 (UniProt Q9NY33) 0.002
DPH1 (UniProt Q9BZG8) -0.021
DYNC2H1 isoform 2 (UniProt Q8NCM8) 0.028
DYNC1LI2 (UniProt O43237) -0.032
DYNLL1 (UniProt P63167) 0.022
DSC2 (UniProt Q02487) 0.133
DVL1 (UniProt O14640) 0.122
EEF1AKMT1 (UniProt Q8WVE0) -0.037
DYNC1I1 (UniProt O14576) 0.028
EFL1 (UniProt Q7Z2Z2) 0.009
DRAP1 (UniProt E9PQX9) 0.026
DSG2 (UniProt Q14126) -0.013
DPYSL3 isoform 2 (UniProt Q14195) -0.17
EFR3A (UniProt Q14156) -0.143
DST isoform 3 (UniProt Q03001) -0.004
DUSP14 (UniProt O95147) 0.004
EFCAB2 isoform 2 (UniProt Q5VUJ9) 0.031

For reference, part of the list above.
log2 fold change, inactive:
DSG2 (UniProt Q14126) -0.013
DPYSL3 isoform 2 (UniProt Q14195) -0.17
